From ChEMBL document CHEMBL5465560, “Selectivity Literature for EUbOPEN Chemogenomic Library” (2024)

Sequences of proteins named here, by UniProt entry; tags and fusion partners are left off. A change or cut given only in a name is not applied to a line headed by its entry.
UniProt P51617, whole entry, looked up: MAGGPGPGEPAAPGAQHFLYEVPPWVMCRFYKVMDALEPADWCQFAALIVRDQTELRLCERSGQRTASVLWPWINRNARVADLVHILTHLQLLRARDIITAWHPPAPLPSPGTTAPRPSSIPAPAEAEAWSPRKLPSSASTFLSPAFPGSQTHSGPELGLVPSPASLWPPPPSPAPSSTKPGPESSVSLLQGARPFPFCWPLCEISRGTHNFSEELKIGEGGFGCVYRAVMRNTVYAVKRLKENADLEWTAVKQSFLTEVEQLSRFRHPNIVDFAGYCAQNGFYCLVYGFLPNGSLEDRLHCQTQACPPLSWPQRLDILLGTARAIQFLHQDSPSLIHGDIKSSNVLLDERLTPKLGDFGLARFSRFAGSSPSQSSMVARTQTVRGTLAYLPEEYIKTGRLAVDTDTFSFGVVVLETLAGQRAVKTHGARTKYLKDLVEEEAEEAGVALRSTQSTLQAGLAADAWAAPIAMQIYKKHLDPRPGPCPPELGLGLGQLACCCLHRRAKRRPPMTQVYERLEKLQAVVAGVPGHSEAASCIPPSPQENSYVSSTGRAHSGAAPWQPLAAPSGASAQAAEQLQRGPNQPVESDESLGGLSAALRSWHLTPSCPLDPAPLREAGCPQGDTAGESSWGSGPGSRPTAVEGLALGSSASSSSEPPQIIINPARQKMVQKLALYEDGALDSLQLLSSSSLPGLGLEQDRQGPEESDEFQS
UniProt O14920: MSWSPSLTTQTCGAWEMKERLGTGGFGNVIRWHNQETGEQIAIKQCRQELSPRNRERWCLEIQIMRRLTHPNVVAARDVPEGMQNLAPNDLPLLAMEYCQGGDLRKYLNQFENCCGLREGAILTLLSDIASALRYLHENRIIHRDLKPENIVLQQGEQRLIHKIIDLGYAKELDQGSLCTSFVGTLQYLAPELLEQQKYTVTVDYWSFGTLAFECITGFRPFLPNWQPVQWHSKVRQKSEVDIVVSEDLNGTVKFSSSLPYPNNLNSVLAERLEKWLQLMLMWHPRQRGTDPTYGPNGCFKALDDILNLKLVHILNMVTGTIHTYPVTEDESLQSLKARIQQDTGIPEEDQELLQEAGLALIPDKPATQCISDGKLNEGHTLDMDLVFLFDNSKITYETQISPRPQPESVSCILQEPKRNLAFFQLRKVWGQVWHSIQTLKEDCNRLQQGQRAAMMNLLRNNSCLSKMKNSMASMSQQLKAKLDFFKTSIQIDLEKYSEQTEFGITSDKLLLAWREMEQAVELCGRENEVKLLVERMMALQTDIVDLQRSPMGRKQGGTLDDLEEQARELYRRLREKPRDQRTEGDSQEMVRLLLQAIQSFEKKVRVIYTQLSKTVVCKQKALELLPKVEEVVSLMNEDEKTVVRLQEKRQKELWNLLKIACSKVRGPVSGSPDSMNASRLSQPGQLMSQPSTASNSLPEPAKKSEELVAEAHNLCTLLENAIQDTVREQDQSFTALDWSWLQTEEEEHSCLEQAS
UniProt P16591: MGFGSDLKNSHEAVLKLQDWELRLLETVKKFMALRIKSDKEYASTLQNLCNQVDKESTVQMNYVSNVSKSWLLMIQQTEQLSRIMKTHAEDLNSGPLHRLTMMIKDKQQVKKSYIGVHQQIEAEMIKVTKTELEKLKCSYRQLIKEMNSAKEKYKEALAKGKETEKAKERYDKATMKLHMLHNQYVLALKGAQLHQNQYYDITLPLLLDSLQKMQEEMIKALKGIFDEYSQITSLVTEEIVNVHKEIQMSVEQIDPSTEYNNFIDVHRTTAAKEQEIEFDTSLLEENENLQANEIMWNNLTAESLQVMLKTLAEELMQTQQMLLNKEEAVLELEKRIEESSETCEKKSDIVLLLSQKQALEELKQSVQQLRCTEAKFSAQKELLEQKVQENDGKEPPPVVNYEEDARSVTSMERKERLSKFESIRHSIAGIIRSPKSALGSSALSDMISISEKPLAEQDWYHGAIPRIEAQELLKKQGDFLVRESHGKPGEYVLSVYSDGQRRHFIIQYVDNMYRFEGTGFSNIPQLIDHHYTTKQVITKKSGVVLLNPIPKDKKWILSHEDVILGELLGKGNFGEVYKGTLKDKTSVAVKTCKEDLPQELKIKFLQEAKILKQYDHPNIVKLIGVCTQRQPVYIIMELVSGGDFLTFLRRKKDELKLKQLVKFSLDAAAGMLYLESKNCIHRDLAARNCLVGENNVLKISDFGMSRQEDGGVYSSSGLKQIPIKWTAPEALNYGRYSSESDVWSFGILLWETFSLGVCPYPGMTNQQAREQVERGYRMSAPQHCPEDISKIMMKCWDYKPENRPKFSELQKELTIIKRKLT
UniProt P19525: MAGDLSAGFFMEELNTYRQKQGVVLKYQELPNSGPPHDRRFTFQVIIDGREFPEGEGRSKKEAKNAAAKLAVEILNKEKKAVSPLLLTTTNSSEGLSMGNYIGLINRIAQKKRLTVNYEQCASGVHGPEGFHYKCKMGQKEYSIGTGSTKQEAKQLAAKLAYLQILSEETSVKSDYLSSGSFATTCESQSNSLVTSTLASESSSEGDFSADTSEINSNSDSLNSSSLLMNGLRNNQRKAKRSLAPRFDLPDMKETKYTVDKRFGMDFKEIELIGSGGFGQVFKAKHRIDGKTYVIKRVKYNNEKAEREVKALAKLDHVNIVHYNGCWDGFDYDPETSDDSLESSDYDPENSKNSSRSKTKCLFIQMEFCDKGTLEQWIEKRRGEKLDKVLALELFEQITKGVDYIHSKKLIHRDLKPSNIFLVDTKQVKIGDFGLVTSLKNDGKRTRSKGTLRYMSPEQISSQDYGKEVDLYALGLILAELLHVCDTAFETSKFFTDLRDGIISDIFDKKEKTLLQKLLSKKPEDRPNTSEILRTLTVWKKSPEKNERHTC
UniProt P07947, whole entry, looked up: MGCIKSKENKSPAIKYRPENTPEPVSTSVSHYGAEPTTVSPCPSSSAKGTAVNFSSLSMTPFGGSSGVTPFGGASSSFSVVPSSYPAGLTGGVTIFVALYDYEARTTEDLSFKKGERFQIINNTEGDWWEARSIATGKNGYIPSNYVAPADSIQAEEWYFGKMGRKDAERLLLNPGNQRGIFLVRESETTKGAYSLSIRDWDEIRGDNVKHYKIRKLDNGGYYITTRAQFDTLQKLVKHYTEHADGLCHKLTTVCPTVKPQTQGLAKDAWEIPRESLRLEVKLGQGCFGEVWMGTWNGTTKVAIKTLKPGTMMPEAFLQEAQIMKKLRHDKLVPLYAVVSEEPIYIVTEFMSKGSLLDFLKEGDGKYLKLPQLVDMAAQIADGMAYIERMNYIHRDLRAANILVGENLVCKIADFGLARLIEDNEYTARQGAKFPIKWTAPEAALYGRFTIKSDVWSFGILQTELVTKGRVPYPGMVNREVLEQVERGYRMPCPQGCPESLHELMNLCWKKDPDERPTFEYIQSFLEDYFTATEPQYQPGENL
UniProt P53778: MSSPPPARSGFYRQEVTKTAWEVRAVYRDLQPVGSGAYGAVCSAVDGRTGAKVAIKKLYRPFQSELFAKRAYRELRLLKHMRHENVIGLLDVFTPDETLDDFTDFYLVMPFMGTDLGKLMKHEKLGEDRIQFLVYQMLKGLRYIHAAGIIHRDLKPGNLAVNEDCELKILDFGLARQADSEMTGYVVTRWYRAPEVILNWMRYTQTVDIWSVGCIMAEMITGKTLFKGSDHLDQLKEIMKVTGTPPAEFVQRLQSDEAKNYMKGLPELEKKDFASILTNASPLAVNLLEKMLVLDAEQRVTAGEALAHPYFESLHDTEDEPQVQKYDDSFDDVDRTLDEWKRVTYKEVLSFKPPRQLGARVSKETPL
UniProt P51957: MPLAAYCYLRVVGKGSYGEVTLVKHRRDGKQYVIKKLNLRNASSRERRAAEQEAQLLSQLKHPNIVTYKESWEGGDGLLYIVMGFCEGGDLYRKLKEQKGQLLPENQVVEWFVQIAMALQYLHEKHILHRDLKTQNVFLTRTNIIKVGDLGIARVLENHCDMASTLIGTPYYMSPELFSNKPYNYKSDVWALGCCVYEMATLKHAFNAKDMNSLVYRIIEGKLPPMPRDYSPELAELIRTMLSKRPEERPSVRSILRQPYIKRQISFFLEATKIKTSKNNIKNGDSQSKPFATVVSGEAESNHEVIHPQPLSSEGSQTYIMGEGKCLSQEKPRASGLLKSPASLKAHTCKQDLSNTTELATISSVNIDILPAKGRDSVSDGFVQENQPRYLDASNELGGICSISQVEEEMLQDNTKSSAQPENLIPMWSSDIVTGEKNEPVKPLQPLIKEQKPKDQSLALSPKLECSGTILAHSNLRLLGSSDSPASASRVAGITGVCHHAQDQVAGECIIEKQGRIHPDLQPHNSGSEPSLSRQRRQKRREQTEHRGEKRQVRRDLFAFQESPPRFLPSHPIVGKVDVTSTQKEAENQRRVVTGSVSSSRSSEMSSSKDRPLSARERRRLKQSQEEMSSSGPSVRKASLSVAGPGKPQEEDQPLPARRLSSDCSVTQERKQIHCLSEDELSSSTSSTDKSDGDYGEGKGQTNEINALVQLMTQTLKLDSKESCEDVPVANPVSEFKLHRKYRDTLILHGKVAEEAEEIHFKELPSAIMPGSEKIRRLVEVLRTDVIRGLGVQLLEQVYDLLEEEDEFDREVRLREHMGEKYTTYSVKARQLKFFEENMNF
UniProt P51956: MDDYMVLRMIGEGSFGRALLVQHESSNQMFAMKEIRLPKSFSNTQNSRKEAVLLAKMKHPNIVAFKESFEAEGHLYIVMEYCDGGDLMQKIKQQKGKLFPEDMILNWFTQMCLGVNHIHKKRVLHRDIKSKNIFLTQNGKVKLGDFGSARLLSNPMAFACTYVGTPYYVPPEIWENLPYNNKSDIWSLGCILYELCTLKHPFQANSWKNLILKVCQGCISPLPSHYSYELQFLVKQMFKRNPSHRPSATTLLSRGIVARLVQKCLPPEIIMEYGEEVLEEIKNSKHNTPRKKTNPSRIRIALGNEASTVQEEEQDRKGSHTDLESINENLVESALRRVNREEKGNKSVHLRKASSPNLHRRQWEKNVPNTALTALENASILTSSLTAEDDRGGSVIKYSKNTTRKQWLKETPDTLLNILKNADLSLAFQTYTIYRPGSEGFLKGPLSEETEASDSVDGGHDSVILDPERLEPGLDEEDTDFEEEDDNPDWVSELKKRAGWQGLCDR
UniProt Q86Y07: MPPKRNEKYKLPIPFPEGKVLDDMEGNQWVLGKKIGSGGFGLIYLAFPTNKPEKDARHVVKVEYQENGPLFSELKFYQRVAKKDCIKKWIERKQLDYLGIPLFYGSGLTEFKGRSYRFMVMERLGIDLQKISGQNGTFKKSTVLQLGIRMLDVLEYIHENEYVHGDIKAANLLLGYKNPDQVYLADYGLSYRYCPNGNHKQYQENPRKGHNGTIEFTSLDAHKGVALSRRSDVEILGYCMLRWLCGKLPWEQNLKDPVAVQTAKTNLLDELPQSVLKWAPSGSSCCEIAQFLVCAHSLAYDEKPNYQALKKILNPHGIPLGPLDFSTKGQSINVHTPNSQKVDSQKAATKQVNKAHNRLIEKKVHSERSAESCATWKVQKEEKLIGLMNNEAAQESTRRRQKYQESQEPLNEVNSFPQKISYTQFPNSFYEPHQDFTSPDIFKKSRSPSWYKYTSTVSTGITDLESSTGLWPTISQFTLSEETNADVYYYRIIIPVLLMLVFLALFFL
UniProt P30291: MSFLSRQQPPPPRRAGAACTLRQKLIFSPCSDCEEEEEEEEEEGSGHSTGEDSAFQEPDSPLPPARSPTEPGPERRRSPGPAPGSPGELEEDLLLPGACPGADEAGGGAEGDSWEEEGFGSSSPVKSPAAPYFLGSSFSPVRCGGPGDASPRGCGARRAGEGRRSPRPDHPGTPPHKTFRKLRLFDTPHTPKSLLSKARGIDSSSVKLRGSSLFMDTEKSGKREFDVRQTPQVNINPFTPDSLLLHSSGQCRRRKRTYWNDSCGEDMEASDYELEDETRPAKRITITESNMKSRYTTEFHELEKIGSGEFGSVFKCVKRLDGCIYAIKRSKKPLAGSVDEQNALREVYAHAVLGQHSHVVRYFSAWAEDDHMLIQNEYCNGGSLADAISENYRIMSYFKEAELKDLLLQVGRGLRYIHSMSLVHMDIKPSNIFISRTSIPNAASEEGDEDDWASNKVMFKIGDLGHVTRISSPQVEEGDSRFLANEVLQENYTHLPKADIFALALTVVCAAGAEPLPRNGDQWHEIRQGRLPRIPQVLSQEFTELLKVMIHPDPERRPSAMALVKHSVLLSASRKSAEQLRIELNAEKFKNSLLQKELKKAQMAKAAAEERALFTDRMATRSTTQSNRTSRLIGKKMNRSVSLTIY
UniProt P52564: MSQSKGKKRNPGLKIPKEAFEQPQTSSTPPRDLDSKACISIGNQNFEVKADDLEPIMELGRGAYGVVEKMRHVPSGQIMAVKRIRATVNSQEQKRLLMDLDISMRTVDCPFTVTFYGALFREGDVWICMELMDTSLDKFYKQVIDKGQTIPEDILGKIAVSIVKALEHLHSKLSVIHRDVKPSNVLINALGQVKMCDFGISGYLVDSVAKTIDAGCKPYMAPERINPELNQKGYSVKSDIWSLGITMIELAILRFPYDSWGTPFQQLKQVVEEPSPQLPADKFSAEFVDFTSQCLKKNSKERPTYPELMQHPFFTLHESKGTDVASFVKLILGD

Experiments:
Conditions in all cases: at 1 µM
[1] = molecular target: Mitogen-activated protein kinase kinase kinase kinase 2 (Homo sapiens) (UniProt Q12851); experiment: Selectivity interaction (KinomeScan (DiscoverX)) EUB0001581a MAP4K2
[2] = molecular target: Interleukin-1 receptor-associated kinase 1 (Homo sapiens) (UniProt P51617); experiment: Selectivity interaction (KinomeScan (DiscoverX)) EUB0001581a IRAK1
[3] = molecular target: Ribosomal protein S6 kinase alpha-5 (Homo sapiens) (UniProt O75582); experiment: Selectivity interaction (KinomeScan (DiscoverX)) EUB0001581a RPS6KA5
[4] = molecular target: Inhibitor of nuclear factor kappa-B kinase subunit beta (Homo sapiens) (UniProt O14920); experiment: Selectivity interaction (KinomeScan (DiscoverX)) EUB0001581a IKBKB
[5] = molecular target: Serine/threonine-protein kinase 25 (Homo sapiens) (UniProt O00506); experiment: Selectivity interaction (KinomeScan (DiscoverX)) EUB0001581a STK25
[6] = molecular target: Serine/threonine-protein kinase Nek11 (Homo sapiens) (UniProt Q8NG66); experiment: Selectivity interaction (KinomeScan (DiscoverX)) EUB0001581a NEK11
[7] = molecular target: Aurora kinase A (Homo sapiens) (UniProt O14965); experiment: Selectivity interaction (KinomeScan (DiscoverX)) EUB0001581a STK6
[8] = molecular target: Receptor tyrosine-protein kinase erbB-3 (Homo sapiens) (UniProt P21860); experiment: Selectivity interaction (KinomeScan (DiscoverX)) EUB0001581a ERBB3
[9] = molecular target: Tyrosine-protein kinase Fer (Homo sapiens) (UniProt P16591); experiment: Selectivity interaction (KinomeScan (DiscoverX)) EUB0001581a FER
[10] = molecular target: Interferon-induced, double-stranded RNA-activated protein kinase (Homo sapiens) (UniProt P19525); experiment: Selectivity interaction (KinomeScan (DiscoverX)) EUB0001581a EIF2AK2
[11] = molecular target: Tyrosine-protein kinase Yes (Homo sapiens) (UniProt P07947); experiment: Selectivity interaction (KinomeScan (DiscoverX)) EUB0001581a YES1
[12] = molecular target: Mitogen-activated protein kinase 12 (Homo sapiens) (UniProt P53778); experiment: Selectivity interaction (KinomeScan (DiscoverX)) EUB0001581a MAPK12
[13] = molecular target: Serine/threonine-protein kinase DCLK2 (Homo sapiens) (UniProt Q8N568); experiment: Selectivity interaction (KinomeScan (DiscoverX)) EUB0001581a DCLK2
[14] = molecular target: Peripheral plasma membrane protein CASK (Homo sapiens) (UniProt O14936); experiment: Selectivity interaction (KinomeScan (DiscoverX)) EUB0001581a CASK
[15] = molecular target: Cyclin-dependent kinase 4/cyclin D1 (Homo sapiens) (UniProt P11802+P24385); experiment: (§1) Selectivity interaction (KinomeScan (DiscoverX)) EUB0001581a CDK4; assay type: protein-complex assay
[16] = molecular target: CDK4/Cyclin D3 (Homo sapiens) (UniProt P11802+P30281); experiment: as §1; assay type: protein-complex assay
[17] = molecular target: Serine/threonine-protein kinase Nek4 (Homo sapiens) (UniProt P51957); experiment: Selectivity interaction (KinomeScan (DiscoverX)) EUB0001581a NEK4
[18] = molecular target: Casein kinase I isoform delta (Homo sapiens, UniProt P48730); experiment: Selectivity interaction (KinomeScan (DiscoverX)) EUB0001581a CSNK1D
[19] = molecular target: SRSF protein kinase 3 (Homo sapiens) (UniProt Q9UPE1); experiment: Selectivity interaction (KinomeScan (DiscoverX)) EUB0001581a SRPK3
[20] = molecular target: Activin receptor type-1-like (Homo sapiens) (UniProt P37023); experiment: Selectivity interaction (KinomeScan (DiscoverX)) EUB0001581a ACVRL1
[21] = molecular target: Serine/threonine-protein kinase Nek1 (Homo sapiens) (UniProt Q96PY6); experiment: Selectivity interaction (KinomeScan (DiscoverX)) EUB0001581a NEK1
[22] = molecular target: Mitogen-activated protein kinase kinase kinase kinase 4 (Homo sapiens, UniProt O95819); experiment: Selectivity interaction (KinomeScan (DiscoverX)) EUB0001581a MAP4K4
[23] = molecular target: Calcium/calmodulin-dependent protein kinase type IV (Homo sapiens) (UniProt Q16566); experiment: Selectivity interaction (KinomeScan (DiscoverX)) EUB0001581a CAMK4
[24] = molecular target: Glycogen synthase kinase-3 beta (Homo sapiens, UniProt P49841); experiment: Selectivity interaction (KinomeScan (DiscoverX)) EUB0001581a GSK3B
[25] = molecular target: Serine/threonine-protein kinase PLK1 (Homo sapiens, UniProt P53350); experiment: Selectivity interaction (KinomeScan (DiscoverX)) EUB0001581a PLK1
[26] = molecular target: Serine/threonine-protein kinase Nek3 (Homo sapiens) (UniProt P51956); experiment: Selectivity interaction (KinomeScan (DiscoverX)) EUB0001581a NEK3
[27] = molecular target: Serine/threonine-protein kinase VRK2 (Homo sapiens) (UniProt Q86Y07); experiment: Selectivity interaction (KinomeScan (DiscoverX)) EUB0001581a VRK2
[28] = molecular target: Myosin light chain kinase 2, skeletal/cardiac muscle (Homo sapiens) (UniProt Q9H1R3); experiment: Selectivity interaction (KinomeScan (DiscoverX)) EUB0001581a MYLK2
[29] = molecular target: Platelet-derived growth factor receptor beta (Homo sapiens, UniProt P09619); experiment: Selectivity interaction (KinomeScan (DiscoverX)) EUB0001581a PDGFRB
[30] = molecular target: Cyclin-dependent kinase 8 (Homo sapiens, UniProt P49336); experiment: Selectivity interaction (KinomeScan (DiscoverX)) EUB0001581a CDK8
[31] = molecular target: Phosphatidylinositol 4,5-bisphosphate 3-kinase catalytic subunit beta isoform (Homo sapiens) (UniProt P42338); experiment: Selectivity interaction (KinomeScan (DiscoverX)) EUB0001581a PIK3CB
[32] = molecular target: Serine/threonine-protein kinase PAK 4 (Homo sapiens, UniProt O96013); experiment: Selectivity interaction (KinomeScan (DiscoverX)) EUB0001581a PAK4
[33] = molecular target: Tyrosine-protein kinase Srms (Homo sapiens) (UniProt Q9H3Y6); experiment: Selectivity interaction (KinomeScan (DiscoverX)) EUB0001581a SRMS
[34] = molecular target: Wee1-like protein kinase (Homo sapiens) (UniProt P30291); experiment: Selectivity interaction (KinomeScan (DiscoverX)) EUB0001581a WEE1
[35] = molecular target: Cytoplasmic tyrosine-protein kinase BMX (Homo sapiens) (UniProt P51813); experiment: Selectivity interaction (KinomeScan (DiscoverX)) EUB0001581a BMX
[36] = molecular target: Dual specificity mitogen-activated protein kinase kinase 6 (Homo sapiens) (UniProt P52564); experiment: Selectivity interaction (KinomeScan (DiscoverX)) EUB0001581a MAP2K6
[37] = molecular target: Mitogen-activated protein kinase 8 (Homo sapiens, UniProt P45983); experiment: Selectivity interaction (KinomeScan (DiscoverX)) EUB0001581a MAPK8
[38] = molecular target: Serine/threonine-protein kinase D2 (Homo sapiens) (UniProt Q9BZL6); experiment: Selectivity interaction (KinomeScan (DiscoverX)) EUB0001581a PRKD2
[39] = molecular target: Ephrin type-A receptor 5 (Homo sapiens) (UniProt P54756); experiment: Selectivity interaction (KinomeScan (DiscoverX)) EUB0001581a EPHA5

C[C@@H]1C[C@H](N)C[C@H](c2ccncc2NC(=O)c2ccc(F)c(-c3c(F)cccc3F)n2)C1
% of control [1]: 83%
% of control [2]: 100%
% of control [3]: 100%
% of control [4]: 100%
% of control [5]: 100%
% of control [6]: 100%
% of control [7]: 93%
% of control [8]: 100%
% of control [9]: 100%
% of control [10]: 89%
% of control [11]: 100%
% of control [12]: 100%
% of control [13]: 100%
% of control [14]: 84%
% of control [15]: 100%
% of control [16]: 100%
% of control [17]: 100%
% of control [18]: 97%
% of control [19]: 100%
% of control [20]: 77%
% of control [21]: 100%
% of control [22]: 100%
% of control [23]: 73%
% of control [24]: 21%
% of control [25]: 87%
% of control [26]: 100%
% of control [27]: 100%
% of control [28]: 68%
% of control [29]: 59%
% of control [30]: 97%
% of control [31]: 38%
% of control [32]: 100%
% of control [33]: 85%
% of control [34]: 100%
% of control [35]: 100%
% of control [36]: 100%
% of control [37]: 100%
% of control [38]: 43%
% of control [39]: 100%
